For assay [1], the target named is full-length sAPPalpha fragment (UniProt P05067). The assay can be described thus: indirect ELISA, sAPPalpha coated; +++ = high binding. Background: In an ELISA, binding on a coated surface is turned into a signal by an enzyme label.
For assay [2] the target is unchanged. Description: ELISA, cross-reactivity to sAPPalpha.

Changes are numbered by the printed parent chain. No constants are given. Whether binding was seen depends on the method and setting. Some binding calls cover weakened binding; strength is not graded here.

B1: ACI-8037-103H5-Ab2 (antibody, mouse IgG2a, kappa, V domains shown)
VH: QVTLKESGPGILKPSQTLSLTCSFSGFSLSTSGMGVGWIRQPSGKGLEWLAHIWWDDDKYYNPSLKSRLTISKDSSRNQVFLKITSVDTADTATYYCVRRGTRLEDYFDFWGQGTTLTVSS
VL: DVLMTQTPLSLPVSLGDQASISCRSSRSIVHSNGNTYLEWYLQKPGQSPKLLIFKVSNRFSGVPDRFSGSGSGTDFTLKISRVEAEDQGVYYCFQGSHVPLTFGAGTKLELKR
On to B1, for which the binding result in assay [1] and in assay [2] was “binds” in each case.

B2: ACI-8037-109F4-Ab1 (antibody, mouse IgG2a, kappa, V domains shown)
VH: QVTLKESGPGILQPSQTLSLTCSFSGFSLSTSGMGVSWIRQPSGKGLEWLAHIYWDDDKRYNPSLKSRLTISKDTSRNQVFLKITSVDTADAGTYYCARRPIRTVVDAMDYWGQGTSVTVSL
VL: B1 VL with R27Q, S28T, K50N, F54Y, Q88L
Turning to B2, the binding result in assay [1] and in assay [2] was “binds” each time.

The record behind these values is patent publication US20230034474A1.
